Data: the supplement of paper PMC6411743
± gives the standard deviation of the averaged measurements. The list shows a part of the results.

Target: T1, E9PER6 and related entries (UniProt O15530)
T1 sequence (whole entry): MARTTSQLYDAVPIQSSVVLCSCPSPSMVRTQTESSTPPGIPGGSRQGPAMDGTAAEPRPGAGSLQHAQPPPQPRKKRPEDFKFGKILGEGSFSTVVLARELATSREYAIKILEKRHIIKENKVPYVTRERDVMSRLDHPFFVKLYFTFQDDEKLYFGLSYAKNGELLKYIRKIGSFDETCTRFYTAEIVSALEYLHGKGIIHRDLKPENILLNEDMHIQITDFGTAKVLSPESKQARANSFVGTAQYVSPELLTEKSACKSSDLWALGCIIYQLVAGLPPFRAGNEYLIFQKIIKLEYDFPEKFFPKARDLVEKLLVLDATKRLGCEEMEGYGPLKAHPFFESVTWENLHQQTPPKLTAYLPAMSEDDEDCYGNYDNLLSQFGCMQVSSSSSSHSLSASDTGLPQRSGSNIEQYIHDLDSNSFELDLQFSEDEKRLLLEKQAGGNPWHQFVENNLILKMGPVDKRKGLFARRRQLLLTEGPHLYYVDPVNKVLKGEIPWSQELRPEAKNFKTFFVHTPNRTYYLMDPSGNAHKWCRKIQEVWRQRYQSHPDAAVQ
Assay: NP40-soluble protein abundance relative to vehicle (solubility fold change) (ratio); higher = more soluble protein in presence of GTP
Procedure: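 Solubility proteome profiling in Jurkat crude lysate. Lysate was treated with Mg-GTP (0.1-10 mM) for 10 min at room temperature and 3 min at 37 °C, then solubilised with 0.8% NP40 and benzonase, followed by ultracentrifugation. Proteins were quantified by TMT10 LC-MS/MS; the value is the NP40-soluble abundance relative to the NP40-processed vehicle, from 3 independent experiments.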

## Nc1nc2c(ncn2[C@@H]2O[C@H](COP(=O)(O)OP(=O)(O)OP(=O)(O)O)[C@@H](O)[C@H]2O)c(=O)[nH]1 [guanosine triphosphate]
concentration: 0.1mM
  NP40-soluble protein abundance: 1.05 ± 0.034
concentration: 0.5mM
  NP40-soluble protein abundance: 1.05 ± 0.02
concentration: 1mM
  NP40-soluble protein abundance: 0.953 ± 0.04
concentration: 2mM
  NP40-soluble protein abundance: 0.969 ± 0.052
concentration: 4mM
  NP40-soluble protein abundance: 0.944 ± 0.055
concentration: 6mM
  NP40-soluble protein abundance: 0.943 ± 0.034
concentration: 8mM
  NP40-soluble protein abundance: 0.917 ± 0.017
concentration: 10mM
  NP40-soluble protein abundance: 0.898 ± 0.035
